Results deposited as PubChem BioAssay AID1259254 (NCATS, 2017).
Assay: 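Gene knock-downs that lead to re-replication, shown by excess G2 DNA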 (primary screen). System: human HCT116 colorectal cancer cells. Reagent: single siRNA against human genes. Duration: 3 days. Measurement: 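Imaged Hoechst DNA stain sorts each cell into a cycle phase by DNA amount; per plate, G2 fraction set to 0% for non-targeting and 100% for GMNN siRNA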. Direction: G2 robust z-score and G2 cells, % of GMNN control: higher = more G2 cells, more excess DNA replication; raw share of cells in G2: higher = larger share of cells with G2 DNA content. Rule for the call: 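Active siRNAs have a G2 robust z of 5 or more median absolute deviations over the median, which in these data means about 38% or higher of GMNN control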.
Shown is one part, drawn at random, of about 59,000 deposited reagents. In the full data, about 1,550 (2.6%) are marked active. 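G2 share is only a proxy for re-replication; each gene was hit by three separate siRNAs, and active genes were retested.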 Raw values are not corrected between plates. The record does not give: the amount of reagent.

target gene	PubChem SID	G2 robust z-score	G2 cells, % of GMNN control	raw share of cells in G2 (%)	outcome
PLD5	SID160760812	-0.0981	2.28	7.04	inactive
PLD5	SID160760813	0.336	5.33	6.65	inactive
PLD5	SID160760814	-1.03	-4.28	2.9	inactive
L3MBTL1	SID160737454	0.508	6.54	9.13	inactive
L3MBTL1	SID160737455	-0.964	-3.81	2.92	inactive
L3MBTL1	SID160737456	-0.465	-0.308	3.89	inactive
STYK1	SID160743635	-1.05	-4.43	4.21	inactive
STYK1	SID160743636	-1	-4.1	3.7	inactive
STYK1	SID160743637	4.28	33.1	14.3	inactive
SUPT6H	SID160717545	3.12	24.9	13.1	inactive
SUPT6H	SID160717546	3.57	28.1	13.3	inactive
SUPT6H	SID160717547	11.2	81.7	33.2	active
CAPNS2	SID160752072	-0.39	0.223	5.69	inactive
CAPNS2	SID160752073	-0.594	-1.21	4.08	inactive
CAPNS2	SID160752074	1.04	10.3	8.08	inactive
LCMT2	SID160723213	3.02	24.2	14.3	inactive
LCMT2	SID160723214	-0.258	1.15	5.22	inactive
LCMT2	SID160723215	-0.422	0.000794	3.2	inactive
SPIDR	SID160736437	0.36	5.5	6.48	inactive
SPIDR	SID160736438	0.151	4.03	5.69	inactive
SPIDR	SID160736439	0.462	6.22	5.47	inactive
PKP2	SID160714401	-0.471	-0.347	4.68	inactive
PKP2	SID160714402	-0.956	-3.76	3.17	inactive
PKP2	SID160714403	-0.734	-2.19	2.84	inactive
CLIC4	SID160737285	0.63	7.4	7.98	inactive
CLIC4	SID160737286	-0.494	-0.505	4.61	inactive
CLIC4	SID160737288	2.75	22.3	13.1	inactive
KDM1A	SID160774485	1.42	12.9	8.3	inactive
KDM1A	SID160774563	-0.927	-3.55	2.97	inactive
KDM1A	SID160774573	-0.0118	2.88	7.53	inactive
CORT	SID160723703	-0.307	0.808	5.68	inactive
CORT	SID160723704	-0.871	-3.16	2.93	inactive
CORT	SID160723705	-1.06	-4.5	1.76	inactive
SYT8	SID160724684	-0.432	-0.0752	2.9	inactive
SYT8	SID160753539	0.174	4.19	5.86	inactive
SYT8	SID160753540	3.24	25.8	11.1	inactive
UFSP2	SID160743539	-0.264	1.11	4.95	inactive
UFSP2	SID160743540	-0.496	-0.52	3.92	inactive
UFSP2	SID160743541	-1.21	-5.58	1.36	inactive
PON2	SID160714654	0.103	3.69	6.25	inactive
PON2	SID160714655	-0.899	-3.36	3.4	inactive
PON2	SID160714656	0.389	5.7	6.04	inactive
RBM7	SID160726559	-0.106	2.22	7.35	inactive
RBM7	SID160726565	1.81	15.7	8.92	inactive
RBM7	SID160726570	5.33	40.5	23.3	active
FKBP2	SID160723763	2.99	24	14.4	inactive
FKBP2	SID160723764	4.95	37.8	17.1	inactive
FKBP2	SID160730807	-0.293	0.902	5.56	inactive
CNOT2	SID160733463	0.0141	3.07	4.46	inactive
CNOT2	SID160778141	0.0342	3.21	6.34	inactive
CNOT2	SID160778142	0.792	8.54	7.59	inactive
NGLY1	SID160744311	3.29	26.1	13.8	inactive
NGLY1	SID160744312	0.0335	3.2	5.67	inactive
NGLY1	SID160744313	1.03	10.2	10.9	inactive
GRXCR1	SID160733234	-0.821	-2.81	3.43	inactive
GRXCR1	SID160766134	0.267	4.84	5.43	inactive
GRXCR1	SID160766135	3.27	25.9	14.7	inactive
OPRM1	SID160778403	-1.44	-7.13	3.29	inactive
OPRM1	SID160778404	-0.719	-2.09	3.79	inactive
OPRM1	SID160778405	-0.339	0.581	3.45	inactive
PCDHB7	SID160744830	1.63	14.4	9.61	inactive
PCDHB7	SID160744831	-0.798	-2.65	3.23	inactive
PCDHB7	SID160744832	-0.52	-0.689	6.13	inactive
ZNF652	SID160731689	-0.409	0.0864	3.56	inactive
ZNF652	SID160731698	-0.797	-2.64	4.81	inactive
ZNF652	SID160731707	2.82	22.8	12.9	inactive
SMURF2	SID160731736	2.97	23.9	12.9	inactive
SMURF2	SID160747894	-0.627	-1.44	3.84	inactive
SMURF2	SID160747895	3.75	29.3	17.8	inactive

11 entries from above in another layout:
L3MBTL1 [SID160737455]
- G2 robust z-score: -0.964
- G2 cells, % of GMNN control: -3.81
- raw share of cells in G2 (%): 2.92
- outcome: inactive

L3MBTL1 [SID160737456]
- G2 robust z-score: -0.465
- G2 cells, % of GMNN control: -0.308
- raw share of cells in G2 (%): 3.89
- outcome: inactive

STYK1 [SID160743635]
- G2 robust z-score: -1.05
- G2 cells, % of GMNN control: -4.43
- raw share of cells in G2 (%): 4.21
- outcome: inactive

STYK1 [SID160743636]
- G2 robust z-score: -1
- G2 cells, % of GMNN control: -4.1
- raw share of cells in G2 (%): 3.7
- outcome: inactive

STYK1 [SID160743637]
- G2 robust z-score: 4.28
- G2 cells, % of GMNN control: 33.1
- raw share of cells in G2 (%): 14.3
- outcome: inactive

SUPT6H [SID160717545]
- G2 robust z-score: 3.12
- G2 cells, % of GMNN control: 24.9
- raw share of cells in G2 (%): 13.1
- outcome: inactive

SUPT6H [SID160717546]
- G2 robust z-score: 3.57
- G2 cells, % of GMNN control: 28.1
- raw share of cells in G2 (%): 13.3
- outcome: inactive

SUPT6H [SID160717547]
- G2 robust z-score: 11.2
- G2 cells, % of GMNN control: 81.7
- raw share of cells in G2 (%): 33.2
- outcome: active

CAPNS2 [SID160752072]
- G2 robust z-score: -0.39
- G2 cells, % of GMNN control: 0.223
- raw share of cells in G2 (%): 5.69
- outcome: inactive

CAPNS2 [SID160752073]
- G2 robust z-score: -0.594
- G2 cells, % of GMNN control: -1.21
- raw share of cells in G2 (%): 4.08
- outcome: inactive

CAPNS2 [SID160752074]
- G2 robust z-score: 1.04
- G2 cells, % of GMNN control: 10.3
- raw share of cells in G2 (%): 8.08
- outcome: inactive
